Assay results published in publication PMC8535069.
These are yes or no findings as the source states them, for the method shown. In cells and extracts the contact can be indirect. Some binding calls cover weakened binding; strength is not graded here. Sequences can lack the tags named with a protein.

Protein sequences, listed by entry. Tags and fused reporters are not part of them. Lines headed by an entry give the natural chain unless they say otherwise; changes in a name come on top.
UniProt P09471: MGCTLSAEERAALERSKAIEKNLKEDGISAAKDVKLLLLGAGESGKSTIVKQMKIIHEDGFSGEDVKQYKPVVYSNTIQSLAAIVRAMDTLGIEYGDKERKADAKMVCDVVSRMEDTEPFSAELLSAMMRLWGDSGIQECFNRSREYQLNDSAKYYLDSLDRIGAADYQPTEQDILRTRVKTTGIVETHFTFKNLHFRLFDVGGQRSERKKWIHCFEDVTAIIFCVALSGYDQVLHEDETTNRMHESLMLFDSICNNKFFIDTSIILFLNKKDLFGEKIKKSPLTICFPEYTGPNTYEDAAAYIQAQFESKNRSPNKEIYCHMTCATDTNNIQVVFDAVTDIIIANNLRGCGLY

What was measured:
Test in all cases: co-IP; N2a cells co-transfected 24 h with Gαo-GFP constructs and His6-RGS19 (1:1) or mRFP-Gβ1/mRFP-Gγ3 (1:1:1); lysate in GST-lysis buffer (20 mM Tris-HCl pH 8.0, 1% Triton X-100, 10% glycerol in PBS); Gαo-GFP precipitated with GST-tagged GFP nanobody and glutathione Sepharose 4B overnight at 4 °C; Western blot against GFP, mRFP, His6; blots quantified, normalised to the precipitated Gαo, 5 experiments
Gαo-GFP Q52P (human) = Gαo-GFP Q52P (human) (UniProt P09471)
Gαo-GFP Q52R (human) = Gαo-GFP Q52R (human) (UniProt P09471)
[1] = target: Gαo-GFP wild-type (human) (UniProt P09471)

B1: His6-RGS19 (protein, UniProt P49795 1-217)
chain: MPTPHEAEKQITGPEEADRPPSMSSHDTASPAAPSRNPCCLCWCCCCSCSWNQERRRAWQASRESKLQPLPSCEVCATPSPEEVQSWAQSFDKLMHSPAGRSVFRAFLRTEYSEENMLFWLACEELKAEANQHVVDEKARLIYEDYVSILSPKEVSLDSRVREGINKKMQEPSAHTFDDAQLQIYTLMHRDSYPRFLSSPTYRALLLQGPSQSSSEA
binding (Gαo-GFP Q52P (human)): binds weakly | binding (Gαo-GFP Q52R (human)): binds weakly | binding [1]: binds
